Results from US20090264388A1, “Compounds and Methods of Treating Disorders Associated With Activation of Metachromatic Cells” (Valorisation Recherche HSCM, Limited Partnership, priority 2006, published 2009).
At least one compound was matched to its structure with a doubt left.

Tested on: RBL-2H3 cells
Assay: Antigen (DNP-BSA)-induced β-hexosaminidase release (degranulation) in IgE-sensitized RBL-2H3 cells
Format: cell-based, rat
Conditions: Dexamethasone 10^−6 M alone; DNP-BSA 5 ng/ml (FIG. 16)
Excerpt: The rat basophilic cell line RBL-2H3 is an art recognized model for studying the activation of metachromatic cells through FcεRI (Oliver et al., “Signal transduction and cellular response in RBL-2H3 mast cells,” Prog. Allergy 42:185-245, 1988).
The below experiments used the rat basophilic cells RBL-2H3 commercially available from the American Type Culture Collection (ATCC; Manassas, Va.) under accession number CRL-2256. RBL-2H3 cells were passively sensitized with mouse IgE anti-dinitrophenyl conjugated to bovine serum albumin (DNP-BSA) monoclonal antibody for 22 hours, and then stimulated with DNP-BSA (antigen) to induce cell degranulation (FIG. 1).

SMILES: C[C@@H]1C[C@H]2[C@@H]3CCC4=CC(=O)C=C[C@]4(C)[C@@]3(F)[C@@H](O)C[C@]2(C)[C@@]1(O)C(=O)CO [dexamethasone]
- effect on degranulation at antigen concentration inducing 50% of maximal degranulation: completely abolishing
